Test results from patent publication US20250027072A1, “METHODS AND CO[…] TO ENGINEERED CANNABINOID RECEPTORS” (priority 2021, published 2025).
Some entries share one result that the patent states for a list of compounds. At least one structure is not confirmed: it was looked up by name or label, or the drawing left a doubt. Some compounds share one range, which may span the group rather than tell each member.

The chains behind the UniProt entries cited, without tags or fusion partners. Residues count along the entry.
UniProt P21554, 90-472: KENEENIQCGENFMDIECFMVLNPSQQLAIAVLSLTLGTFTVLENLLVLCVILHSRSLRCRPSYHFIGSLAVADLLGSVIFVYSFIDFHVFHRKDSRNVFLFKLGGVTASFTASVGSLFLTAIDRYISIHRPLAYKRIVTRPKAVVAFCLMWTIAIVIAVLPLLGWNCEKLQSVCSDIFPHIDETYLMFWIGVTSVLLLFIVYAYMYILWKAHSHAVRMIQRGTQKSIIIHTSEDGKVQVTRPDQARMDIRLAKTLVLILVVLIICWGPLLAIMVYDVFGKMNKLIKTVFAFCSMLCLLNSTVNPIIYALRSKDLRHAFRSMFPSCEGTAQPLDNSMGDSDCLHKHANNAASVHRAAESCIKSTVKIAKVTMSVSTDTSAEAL

These compounds were tested against T1, human Cannabinoid Receptor 1 (CB1R) (Homo sapiens, UniProt P21554). Details: compounds at 10 nM.
T1 construct: syn-prepro (synthetic yeast pre-pro secretion leader) (N); expressed in transfected cells; host or cells: Saccharomyces cerevisiae BY4741-derived strain (ste2, sst2, far1 knocked out); Gpa1-Gαi3 chimera
Assay type: cell-based
With `CCCCCn1nc(C(=O)NC(C(N)=O)C(C)(C)C)c2ccccc21` (stereo not drawn) [ADB-PINACA] the “maximal activity at CB1R” value was 79-84%. `CCCCCn1nc(C(=O)N[C@H](C(N)=O)C(C)C)c2ccccc21` [AB-PINACA] was tested, and the “maximal activity at CB1R” value was 79-84%. With `CC(C)[C@H](NC(=O)c1nn(Cc2ccc(F)cc2)c2ccccc12)C(N)=O` [AB-FUBINACA] the “maximal activity at CB1R” value was 79-84%.

Same assay, conditions: compounds at 10 nM; 100 μM ACEA control
For `CCCCCn1c(O)c(N=NC(=O)c2ccccc2)c2ccc(OC)cc21` [MDA 77], the “relative fluorescence of the ACEA positive control at CB1R” value (shortened to “relative fluorescence”) was “less than 25%”. `COc1ccc(C(=O)c2c(C)n(CCN3CCOCC3)c3cc(Br)ccc23)cc1` [WIN54,461] was tested, and the “relative fluorescence” value was “less than 25%”. `Cc1c(C(=O)c2ccccc2)c(N)c(-c2ccccc2)n1Cc1ccc(Cl)cc1` [URB447] was tested, and the “relative fluorescence” value was “less than 25%”.
